# Values of other authors as cited in patent US8202863B2 (Aventis Pharmaceuticals Inc., priority 2005, dated 2012).
# At least one structure is not confirmed: it was looked up by name or label, or the drawing left a doubt.
# System: PGDS
# Conditions: literature report; cited from earlier work
smiles,measurement,value
COc1ccc(/C=C/C(=O)Nc2ccccc2C(=O)O)cc1OC [Tranilast],PGDS inhibition,PGDS inhibitor
